Measurements reported in PubChem BioAssay AID504791 (Drosophila RNAi Screening Center, 2011)
The screen tested about 23,000 reagents; below is a random part of those that have a named target and a result. Of all reagents, 199 (0.86%) got an active call. 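Plate-scaled ratios behind the calls are not deposited; printed light signals are raw; many rows marked increased or decreased are still called inactive.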 The numbers tell different reagents against one gene apart. Reagent sequences are not shown. Not stated in the record: the direction of the score.

- Screen: 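Genes whose knock-down strengthens or weakens small-RNA reporter silencing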 (primary screen)
- Cell system: Drosophila S2-derived reporter cells
- Reagent: long dsRNA against Drosophila genes, about 150-250 ng dsRNA per well (siRNA assay); about 80-120 ng (miRNA assay)
- Duration: about 5 days (siRNA assay); about 4 days (miRNA assay)
- Conditions: copper sulfate induction of reporters: 25 µM (siRNA assay); 200 mM stated (miRNA assay), 1-2 days before reading
- Measurement: 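Dual luciferase assay: Renilla to firefly signal ratio in each well, scaled to the mean ratio of its plate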
- Active means: 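a well was a first-pass pick when its plate-scaled ratio rose above 1.5 (siRNA assay) or 1.6 (miRNA assay), or dropped below 0.6; a gene counted only if two separate dsRNAs agreed on retest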

no.	gene	reagent no.	stable siRNA reporter change	stable assay Renilla, run 1 (luminescence)	stable assay firefly, run 1 (luminescence)	Call
1	CG10914	1		6279	3.05e5	inactive
2	jeb (jelly belly)	1		6476	4.06e5	inactive
3	jeb (jelly belly)	2	reporter ratio lowered past the hit cutoff	6331	6.11e5	inactive
4	tHMG2 (testis-enriched HMG-box-containing protein 2)	1		8313	4.51e5	inactive
5	regucalcin	1		5842	3.20e5	inactive
6	regucalcin	2		6483	4.90e5	inactive
7	Or88a (Odorant receptor 88a)	1		7724	4.10e5	inactive
8	CG10839	1		7739	3.62e5	inactive
9	deltaCOP (Coat Protein (coatomer) delta)	1		6306	2.77e5	inactive
10	CG34384	1		6206	4.06e5	inactive
11	CG34384	2		6976	5.51e5	inactive
12	CG34384	3		7080	4.90e5	inactive
13	CG34384	4		7726	5.34e5	inactive
14	CG31921	1		5560	4.17e5	inactive
15	CG1638	1		6743	6.20e5	inactive
16	sas (stranded at second)	1		6678	3.13e5	inactive
17	CG15580	1		6650	3.54e5	inactive
18	Mcm3 (Minichromosome maintenance 3)	1		6927	4.24e5	inactive
19	Syx18 (Syntaxin 18)	1		7486	3.07e5	inactive
20	Cp7Fb (Chorion protein b at 7F)	1		5067	2.65e5	inactive
21	CG9581	1		4271	3.91e5	inactive
22	CG9581	2		9670	7.13e5	inactive
23	ATPCL (ATP citrate lyase)	1		6476	3.36e5	inactive
24	cid (centromere identifier)	1		3967	3.08e5	inactive
25	cid (centromere identifier)	2		6587	3.49e5	inactive
26	CG3640	1		7451	5.58e5	inactive
27	Dhps (Deoxyhypusine synthase)	1		7023	3.85e5	inactive
28	CG14569	1		8678	4.27e5	inactive
29	CG43672	1		5188	4.03e5	inactive
30	CG43672	2		5567	3.43e5	inactive
31	BomBc1 (Bomanin Bicipital 1)	1		6592	3.15e5	inactive
32	mRpL4 (mitochondrial ribosomal protein L4)	1		1.66e5	1.45e6	inactive
33	CG8195	1		8431	3.37e5	inactive
34	CG15475	1		9161	4.71e5	inactive
